{
  "source": "patent US20160158179A1",
  "about": "“NANOEMULSION THERAPEUTIC COMPOSITIONS AND METHODS OF USING THE SAME” (THE REGENTS OF THE UNIVERSITY OF MICHIGAN, priority 2008, published 2016)",
  "key": {"[1]": {"test_system": "H. influenzae clinical isolates", "assay": "MIC and MBC susceptibility assays (CLSI)", "assay_type": "cell-based, Haemophilus influenzae"}, "Acinetobacter baumannii": {"test_system": "Acinetobacter baumannii", "assay": "MIC determination, CLSI microdilution with alamar blue", "assay_type": "cell-based", "conditions": "Acinetobacter baumannii (n = 5); nanoemulsions in the presence of 5 mM EDTA"}, "[2]": {"test_system": "H. influenzae clinical isolates", "conditions": "ATCC H. influenzae 49247 quality control isolate; acceptable QC range; cited from earlier work"}},
  "note": "At least one structure is not confirmed: it was looked up by name or label, or the drawing left a doubt.",
  "data": [
    {"smiles": "CCC[C@@H]1C[C@@H](C(=O)N[C@@H]([C@H]2O[C@H](SC)[C@H](O)[C@@H](O)[C@H]2O)[C@H](C)Cl)N(C)C1", "note": "[Cli, clindamycin]", "values": [
      {"measurement": "susceptibility of the majority of isolates by MIC90 values", "setting": "[1]", "result": "resistant"}
    ]},
    {"smiles": "C[C@@H](O)[C@H]1C(=O)N2C(C(=O)O)=C(SCCN=CN)C[C@H]12", "note": "[Imipenem]", "values": [
      {"measurement": "MIC Range", "setting": "Acinetobacter baumannii", "result": "<=0.12->8"}
    ]},
    {"smiles": "CN(C)[C@@H]1C(O)=C(C(N)=O)C(=O)[C@@]2(O)C(O)=C3C(=O)c4c(O)cccc4[C@@](C)(O)[C@H]3C[C@@H]12", "note": "[Tetracycline]", "values": [
      {"measurement": "susceptibility of the majority of isolates by MIC90 values", "setting": "[1]", "result": "susceptible"},
      {"measurement": "QC MIC range", "setting": "[2]", "result": "E (QC MIC range is 4-32) μg/ml"}
    ]}
  ]
}
